# These are yes or no findings as the source states them, for the method shown. Binding seen in cells or lysates may run through a third protein.
# Chains of the proteins cited; added tags and fusions are not shown. Residues count along the entry.
# UniProt P16144, residues 28-1822: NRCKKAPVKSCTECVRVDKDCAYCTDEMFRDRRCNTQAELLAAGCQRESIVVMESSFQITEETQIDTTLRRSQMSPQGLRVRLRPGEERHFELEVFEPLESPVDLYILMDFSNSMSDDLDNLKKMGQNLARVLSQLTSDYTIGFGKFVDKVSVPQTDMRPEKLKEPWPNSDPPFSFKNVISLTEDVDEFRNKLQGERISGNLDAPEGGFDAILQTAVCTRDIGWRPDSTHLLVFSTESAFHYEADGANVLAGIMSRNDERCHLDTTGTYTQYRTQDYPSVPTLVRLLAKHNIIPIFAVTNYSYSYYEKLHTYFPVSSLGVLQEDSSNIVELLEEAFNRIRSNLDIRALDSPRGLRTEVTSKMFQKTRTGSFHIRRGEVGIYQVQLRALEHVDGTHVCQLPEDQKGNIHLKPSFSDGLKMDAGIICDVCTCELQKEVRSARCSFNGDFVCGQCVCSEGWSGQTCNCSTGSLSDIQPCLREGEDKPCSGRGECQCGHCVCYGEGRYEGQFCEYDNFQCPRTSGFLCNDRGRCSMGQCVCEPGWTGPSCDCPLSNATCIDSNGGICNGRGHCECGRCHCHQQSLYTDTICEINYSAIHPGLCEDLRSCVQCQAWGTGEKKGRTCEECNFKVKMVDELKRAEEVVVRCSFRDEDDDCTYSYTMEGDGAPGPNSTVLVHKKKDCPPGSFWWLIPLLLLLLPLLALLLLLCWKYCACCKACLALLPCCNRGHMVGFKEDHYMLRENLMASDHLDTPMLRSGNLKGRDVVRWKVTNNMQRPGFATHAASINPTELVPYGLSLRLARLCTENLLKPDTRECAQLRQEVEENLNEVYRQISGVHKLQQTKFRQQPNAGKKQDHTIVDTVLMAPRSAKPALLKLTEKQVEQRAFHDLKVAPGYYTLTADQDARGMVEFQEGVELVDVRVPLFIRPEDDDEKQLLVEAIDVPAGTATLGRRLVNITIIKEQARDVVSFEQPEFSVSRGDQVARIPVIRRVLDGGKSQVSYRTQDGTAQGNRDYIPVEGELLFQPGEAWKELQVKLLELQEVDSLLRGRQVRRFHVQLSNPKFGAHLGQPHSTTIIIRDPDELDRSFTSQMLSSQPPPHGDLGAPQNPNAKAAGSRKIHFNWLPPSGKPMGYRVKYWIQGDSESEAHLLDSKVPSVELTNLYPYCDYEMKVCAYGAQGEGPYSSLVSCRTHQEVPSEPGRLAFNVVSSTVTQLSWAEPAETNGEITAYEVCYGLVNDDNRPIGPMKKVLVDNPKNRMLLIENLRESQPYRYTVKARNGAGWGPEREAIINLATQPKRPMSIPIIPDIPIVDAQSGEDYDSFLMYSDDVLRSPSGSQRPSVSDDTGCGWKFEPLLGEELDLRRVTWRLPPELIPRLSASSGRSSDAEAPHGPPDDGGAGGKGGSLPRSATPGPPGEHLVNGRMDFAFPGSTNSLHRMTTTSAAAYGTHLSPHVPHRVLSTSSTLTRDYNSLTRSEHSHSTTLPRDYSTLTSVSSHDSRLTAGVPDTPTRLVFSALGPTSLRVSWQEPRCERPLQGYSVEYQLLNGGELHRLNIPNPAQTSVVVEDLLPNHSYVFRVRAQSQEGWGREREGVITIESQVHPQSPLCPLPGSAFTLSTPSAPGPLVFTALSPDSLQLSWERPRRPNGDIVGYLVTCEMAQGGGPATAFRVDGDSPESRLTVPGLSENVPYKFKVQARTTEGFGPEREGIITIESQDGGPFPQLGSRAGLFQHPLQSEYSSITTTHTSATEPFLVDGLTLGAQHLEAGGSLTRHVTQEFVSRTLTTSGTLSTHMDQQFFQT
# UniProt P06731, residues 35-685: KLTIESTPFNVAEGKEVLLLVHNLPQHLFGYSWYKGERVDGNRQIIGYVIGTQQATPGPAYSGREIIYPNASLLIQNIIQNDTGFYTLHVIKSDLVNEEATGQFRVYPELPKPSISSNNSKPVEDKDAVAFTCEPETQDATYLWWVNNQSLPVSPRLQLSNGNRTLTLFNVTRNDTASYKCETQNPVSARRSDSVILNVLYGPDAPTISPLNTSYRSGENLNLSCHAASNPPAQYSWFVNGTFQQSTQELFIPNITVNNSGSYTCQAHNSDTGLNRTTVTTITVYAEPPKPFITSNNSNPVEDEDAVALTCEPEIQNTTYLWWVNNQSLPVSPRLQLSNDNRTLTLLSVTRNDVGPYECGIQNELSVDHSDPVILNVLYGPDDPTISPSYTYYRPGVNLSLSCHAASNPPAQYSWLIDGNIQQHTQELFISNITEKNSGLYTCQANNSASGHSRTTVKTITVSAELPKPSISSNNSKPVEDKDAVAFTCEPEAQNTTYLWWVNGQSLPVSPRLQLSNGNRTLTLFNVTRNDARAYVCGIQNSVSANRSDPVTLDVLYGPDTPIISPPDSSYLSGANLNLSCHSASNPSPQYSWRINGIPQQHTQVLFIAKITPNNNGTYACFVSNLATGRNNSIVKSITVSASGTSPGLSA
# UniProt P40199, residues 35-320: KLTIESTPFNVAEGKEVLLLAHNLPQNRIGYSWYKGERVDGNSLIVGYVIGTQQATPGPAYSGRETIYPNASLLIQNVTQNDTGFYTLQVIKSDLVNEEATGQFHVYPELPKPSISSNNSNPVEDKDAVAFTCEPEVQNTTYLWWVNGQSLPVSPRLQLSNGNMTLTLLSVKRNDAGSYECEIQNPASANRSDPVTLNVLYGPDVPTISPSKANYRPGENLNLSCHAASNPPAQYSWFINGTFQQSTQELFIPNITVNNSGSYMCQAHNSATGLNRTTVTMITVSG
# Target: integrin β4 (human (endogenous in C45 CTOSs)) (UniProt P16144)
# Test: co-IP; floating cultured C45 CTOSs lysed in TNE-T buffer (10 mM Tris-HCl pH 7.4, 1 mM EDTA, 150 mM NaCl, 1% Triton); lysate with antibodies at 4 °C overnight, protein G sepharose; Western blot
row,binding,Substance
1,no binding,CEACAM5 (from UniProt P06731 35-685)
2,no binding,CEACAM6 (from UniProt P40199 35-320)

# Source: paper PMC4838943
